The values below come from the supplement of paper PMC8728848.

Common to all, as to assay: glycan array binding signal (z-score within array); higher = stronger binding
Common to all, as to details: glycan notation: IUPAC condensed, linker removed

Assay [1] has as its target Gal(b1-4)GlcNAc(b1-2)[Gal(b1-4)GlcNAc(b1-6)]Man(a1-6)[GlcNAc(b1-4)][Gal(b1-4)GlcNAc(b1-2)Man(a1-3)]Man(b1-4)GlcNAc(b1-4)GlcNAc. In a few lines: (§1)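 The binding signal is a Z-score computed within each array and averaged over linkers. Arrays of the same protein sequence at different concentrations or buffers were also averaged together. Data originate from 3228 arrays in the Consortium for Functional Glycomics database, kept only where the protein sequence was available.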

Assay [2] concerns the target Gal(b1-4)GlcNAc(b1-2)[Gal(b1-4)GlcNAc(b1-6)]Man(a1-6)[GlcNAc(b1-4)][Gal(b1-4)GlcNAc(b1-2)[Gal(b1-4)GlcNAc(b1-4)]Man(a1-3)]Man(b1-4)GlcNAc(b1-4)[Fuc(a1-6)]GlcNAc. The method in brief:
as §1

Assay [3] addresses Gal(b1-4)GlcNAc(b1-3)Gal(b1-3)GalNAc. The method in brief:
as §1

Assay [4] addresses Gal(b1-4)GlcNAc(b1-3)Gal(b1-3)GlcNAc. The method in brief: as §1
In assay [5] the target is Gal(b1-4)GlcNAc(b1-3)Gal(b1-4)Glc. The method in brief: as §1
Assay [6] concerns the target Gal(b1-4)GlcNAc(b1-3)Gal(b1-4)GlcNAc. The method in brief: as §1
The target of assay [7] is Gal(b1-4)GlcNAc(b1-3)Gal(b1-4)GlcNAc(b1-2)Man(a1-3)[Gal(b1-4)GlcNAc(b1-3)Gal(b1-4)GlcNAc(b1-2)Man(a1-6)]Man(b1-4)GlcNAc(b1-4)GlcNAc. The method in brief: as §1
Assay [8] has as its target Gal(b1-4)GlcNAc(b1-3)Gal(b1-4)GlcNAc(b1-2)Man(a1-3)[Gal(b1-4)GlcNAc(b1-3)Gal(b1-4)GlcNAc(b1-2)Man(a1-6)]Man(b1-4)GlcNAc(b1-4)[Fuc(a1-6)]GlcNAc. In a few lines: as §1
Assay [9] concerns the target Gal(b1-4)GlcNAc(b1-3)Gal(b1-4)GlcNAc(b1-2)[Gal(b1-4)GlcNAc(b1-3)Gal(b1-4)GlcNAc(b1-6)]Man(a1-6)[Gal(b1-4)GlcNAc(b1-3)Gal(b1-4)GlcNAc(b1-2)Man(a1-3)]Man(b1-4)GlcNAc(b1-4)GlcNAc. In a few lines: as §1
The target in assay [10] is Gal(b1-4)GlcNAc(b1-3)Gal(b1-4)GlcNAc(b1-2)[Gal(b1-4)GlcNAc(b1-3)Gal(b1-4)GlcNAc(b1-6)]Man(a1-6)[Gal(b1-4)GlcNAc(b1-3)Gal(b1-4)GlcNAc(b1-2)Man(a1-3)]Man(b1-4)GlcNAc(b1-4)[Fuc(a1-6)]GlcNAc. In a few lines:
as §1

Assay [11] concerns the target Gal(b1-4)GlcNAc(b1-3)Gal(b1-4)GlcNAc(b1-3)Gal(b1-4)GlcNAc. The method in brief:
as §1

The target of assay [12] is Gal(b1-4)GlcNAc(b1-3)Gal(b1-4)GlcNAc(b1-3)Gal(b1-4)GlcNAc(b1-2)Man(a1-3)[Gal(b1-4)GlcNAc(b1-3)Gal(b1-4)GlcNAc(b1-3)Gal(b1-4)GlcNAc(b1-2)Man(a1-6)]Man(b1-4)GlcNAc(b1-4)GlcNAc. The method in brief: as §1
Assay [13] addresses Gal(b1-4)GlcNAc(b1-3)Gal(b1-4)GlcNAc(b1-3)Gal(b1-4)GlcNAc(b1-2)Man(a1-3)[Gal(b1-4)GlcNAc(b1-3)Gal(b1-4)GlcNAc(b1-3)Gal(b1-4)GlcNAc(b1-2)Man(a1-6)]Man(b1-4)GlcNAc(b1-4)[Fuc(a1-6)]GlcNAc. In a few lines: as §1
Assay [14] addresses Gal(b1-4)GlcNAc(b1-3)Gal(b1-4)GlcNAc(b1-3)Gal(b1-4)GlcNAc(b1-2)[Gal(b1-4)GlcNAc(b1-3)Gal(b1-4)GlcNAc(b1-3)Gal(b1-4)GlcNAc(b1-6)]Man(a1-6)[Gal(b1-4)GlcNAc(b1-3)Gal(b1-4)GlcNAc(b1-3)Gal(b1-4)GlcNAc(b1-2)Man(a1-3)]Man(b1-4)GlcNAc(b1-4)[Fuc(a1-6)]GlcNAc. The method in brief: as §1
In assay [15] the target is Gal(b1-4)GlcNAc(b1-3)Gal(b1-4)GlcNAc(b1-3)Gal(b1-4)GlcNAc(b1-3)Gal(b1-4)GlcNAc(b1-2)Man(a1-3)[Gal(b1-4)GlcNAc(b1-3)Gal(b1-4)GlcNAc(b1-3)Gal(b1-4)GlcNAc(b1-3)Gal(b1-4)GlcNAc(b1-2)Man(a1-6)]Man(b1-4)GlcNAc(b1-4)GlcNAc. The method in brief:
as §1

For assay [16], the target named is Gal(b1-4)GlcNAc(b1-3)Gal(b1-4)GlcNAc(b1-3)Gal(b1-4)GlcNAc(b1-3)Gal(b1-4)GlcNAc(b1-2)Man(a1-3)[Gal(b1-4)GlcNAc(b1-3)Gal(b1-4)GlcNAc(b1-3)Gal(b1-4)GlcNAc(b1-3)Gal(b1-4)GlcNAc(b1-2)Man(a1-6)]Man(b1-4)GlcNAc(b1-4)[Fuc(a1-6)]GlcNAc. In a few lines: as §1
The target in assay [17] is Gal(b1-4)GlcNAc(b1-3)Gal(b1-4)GlcNAc(b1-3)Gal(b1-4)GlcNAc(b1-3)Gal(b1-4)GlcNAc(b1-2)[Gal(b1-4)GlcNAc(b1-3)Gal(b1-4)GlcNAc(b1-3)Gal(b1-4)GlcNAc(b1-3)Gal(b1-4)GlcNAc(b1-6)]Man(a1-6)[Gal(b1-4)GlcNAc(b1-3)Gal(b1-4)GlcNAc(b1-3)Gal(b1-4)GlcNAc(b1-3)Gal(b1-4)GlcNAc(b1-2)Man(a1-3)]Man(b1-4)GlcNAc(b1-4)[Fuc(a1-6)]GlcNAc. The method in brief: as §1
In assay [18] the target is Gal(b1-4)GlcNAc(b1-3)Gal(b1-4)GlcNAc(b1-3)Gal(b1-4)GlcNAc(b1-3)Gal(b1-4)GlcNAc(b1-3)Gal(b1-4)GlcNAc(b1-2)Man(a1-3)[Gal(b1-4)GlcNAc(b1-3)Gal(b1-4)GlcNAc(b1-3)Gal(b1-4)GlcNAc(b1-3)Gal(b1-4)GlcNAc(b1-3)Gal(b1-4)GlcNAc(b1-2)Man(a1-6)]Man(b1-4)GlcNAc(b1-4)GlcNAc. In a few lines: as §1
For assay [19], the target named is Gal(b1-4)GlcNAc(b1-3)Gal(b1-4)GlcNAc(b1-3)Gal(b1-4)GlcNAc(b1-3)Gal(b1-4)GlcNAc(b1-3)Gal(b1-4)GlcNAc(b1-2)Man(a1-3)[Gal(b1-4)GlcNAc(b1-3)Gal(b1-4)GlcNAc(b1-3)Gal(b1-4)GlcNAc(b1-3)Gal(b1-4)GlcNAc(b1-3)Gal(b1-4)GlcNAc(b1-2)Man(a1-6)]Man(b1-4)GlcNAc(b1-4)[Fuc(a1-6)]GlcNAc. The method in brief:
as §1

Assay [20] has as its target Gal(b1-4)GlcNAc(b1-3)Gal(b1-4)GlcNAc(b1-3)Gal(b1-4)GlcNAc(b1-3)Gal(b1-4)GlcNAc(b1-3)Gal(b1-4)GlcNAc(b1-2)[Gal(b1-4)GlcNAc(b1-3)Gal(b1-4)GlcNAc(b1-3)Gal(b1-4)GlcNAc(b1-3)Gal(b1-4)GlcNAc(b1-3)Gal(b1-4)GlcNAc(b1-6)]Man(a1-6)[Gal(b1-4)GlcNAc(b1-3)Gal(b1-4)GlcNAc(b1-3)Gal(b1-4)GlcNAc(b1-3)Gal(b1-4)GlcNAc(b1-3)Gal(b1-4)GlcNAc(b1-2)Man(a1-3)]Man(b1-4)GlcNAc(b1-4)[Fuc(a1-6)]GlcNAc. The method in brief:
as §1

Assay [21] deals with Gal(b1-4)GlcNAc(b1-3)Gal(b1-4)GlcNAc(b1-3)Gal(b1-4)GlcNAc(b1-3)Gal(b1-4)GlcNAc(b1-3)Gal(b1-4)GlcNAc(b1-3)Gal(b1-4)GlcNAc(b1-2)Man(a1-3)[Gal(b1-4)GlcNAc(b1-3)Gal(b1-4)GlcNAc(b1-3)Gal(b1-4)GlcNAc(b1-3)Gal(b1-4)GlcNAc(b1-3)Gal(b1-4)GlcNAc(b1-3)Gal(b1-4)GlcNAc(b1-2)Man(a1-6)]Man(b1-4)GlcNAc(b1-4)GlcNAc. The method in brief: as §1
Assay [22] has as its target Gal(b1-4)GlcNAc(b1-3)Gal(b1-4)GlcNAc(b1-3)GalNAc. In a few lines: as §1
The target of assay [23] is Gal(b1-4)GlcNAc(b1-3)Gal(b1-4)GlcNAc(b1-3)[Gal(b1-4)GlcNAc(b1-3)Gal(b1-4)GlcNAc(b1-6)]GalNAc. In a few lines: as §1

The other results are listed elsewhere or left out.

B1: PX9961Q-bfa-504-27-504 (Bacteroides fragilis) (protein)
chain: NDWLDRKPADGIPSEDAITNYNDALTARTGMYDGIQGNSNATSYYGARMFYYGDVRADDMQARTQGMRSSSCYEMLYTVDDAPNMWNIPYNVIRRANRLIEAINEKKVTDATEAQIGKIYSEALVVRALVHFDLVRIYGMPYTADNGASLGVPVIVKPLERNDLPSRNTVAEVYTQVITDLTDAINSGYLAKDQTPGYINEWAAKALLTRVYLTKGDNENALKVAEDIITNSPYKLWTNEEYVNAWYKSNGAHTNEMIFEVVNASNDDWTDRNGIAYLLNENGYADAIVTKSFMNMLSQDPKDVRIGMVLPAQYDKDLQEEYGDAKIFINKFPADKDDVGEMRLNNLPLLRLSEVYLSAAEAAAKLGGHQDKAAKYLNEIVQRANPEAKAISEADATVERIILERRKEMIGEGQRYFDALRNNETIVRYKDEGDKGYHYSLIKESQSFDRTYFRAILPIPVDETNVNPNLRAQQNPGY
Turning to B1, the “glycan array binding signal (z-score)” value in assay [1] is -0.41; in [2], -0.323; in [3] it was -0.068; in assay [4] it was -0.556; in assay [5] it was -0.506; in assay [6] it was -0.406. Also, the “glycan array binding signal (z-score)” value in assay [7] is 1.45; in [8], 0.652; in [9] it was -0.936; in [10], 0.479; in assay [11], -0.686; in assay [12] it was 2.45. For the same molecule, the “glycan array binding signal (z-score)” value is -0.039 in assay [13]; 0.655 in assay [14]; 2.49 in [15]; 0.085 in [16]; -0.629 in [17]; 0.85 in assay [18]. In addition, the “glycan array binding signal (z-score)” value was 0.281 in assay [19]; -0.112 in assay [20]; 1.31 in assay [21]; -0.212 in assay [22]; -0.269 in [23].
